Laboratory results: the supplement of paper PMC10849652
This is one part of the list. Residues, ends and D or L forms follow the SMILES beside them. *: point of attachment. Cbz = O=C(OCc1ccccc1)*

The chains behind the UniProt entries cited, without tags or fusion partners. Where a name states a change or a piece, a line headed by the entry shows the natural chain unless it says otherwise.
UniProt Q9H8W3: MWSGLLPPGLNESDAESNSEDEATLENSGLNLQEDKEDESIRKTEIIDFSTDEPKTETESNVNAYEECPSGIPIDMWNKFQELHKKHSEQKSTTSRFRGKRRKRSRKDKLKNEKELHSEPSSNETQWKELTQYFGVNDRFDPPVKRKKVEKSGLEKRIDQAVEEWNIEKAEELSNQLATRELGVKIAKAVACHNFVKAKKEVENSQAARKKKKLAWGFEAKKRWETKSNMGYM
UniProt Q9HCM4: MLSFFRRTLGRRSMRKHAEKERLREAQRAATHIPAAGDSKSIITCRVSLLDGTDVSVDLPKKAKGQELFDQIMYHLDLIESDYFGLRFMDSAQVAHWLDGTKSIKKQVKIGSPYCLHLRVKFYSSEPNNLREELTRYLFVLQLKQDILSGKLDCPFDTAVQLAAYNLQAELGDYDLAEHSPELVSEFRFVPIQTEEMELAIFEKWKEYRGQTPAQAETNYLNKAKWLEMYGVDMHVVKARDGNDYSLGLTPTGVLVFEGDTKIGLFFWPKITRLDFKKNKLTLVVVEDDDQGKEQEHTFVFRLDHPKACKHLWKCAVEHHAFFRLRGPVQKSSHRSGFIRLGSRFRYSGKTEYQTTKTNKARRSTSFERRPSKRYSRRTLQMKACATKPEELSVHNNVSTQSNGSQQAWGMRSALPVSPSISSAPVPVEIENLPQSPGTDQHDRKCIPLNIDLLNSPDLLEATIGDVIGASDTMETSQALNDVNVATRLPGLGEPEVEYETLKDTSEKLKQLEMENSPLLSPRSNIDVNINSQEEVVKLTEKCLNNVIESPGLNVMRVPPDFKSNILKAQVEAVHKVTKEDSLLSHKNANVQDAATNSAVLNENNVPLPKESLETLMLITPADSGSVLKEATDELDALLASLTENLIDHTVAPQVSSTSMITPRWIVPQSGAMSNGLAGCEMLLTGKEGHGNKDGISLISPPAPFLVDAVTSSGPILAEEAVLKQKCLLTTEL
UniProt Q8N0U4: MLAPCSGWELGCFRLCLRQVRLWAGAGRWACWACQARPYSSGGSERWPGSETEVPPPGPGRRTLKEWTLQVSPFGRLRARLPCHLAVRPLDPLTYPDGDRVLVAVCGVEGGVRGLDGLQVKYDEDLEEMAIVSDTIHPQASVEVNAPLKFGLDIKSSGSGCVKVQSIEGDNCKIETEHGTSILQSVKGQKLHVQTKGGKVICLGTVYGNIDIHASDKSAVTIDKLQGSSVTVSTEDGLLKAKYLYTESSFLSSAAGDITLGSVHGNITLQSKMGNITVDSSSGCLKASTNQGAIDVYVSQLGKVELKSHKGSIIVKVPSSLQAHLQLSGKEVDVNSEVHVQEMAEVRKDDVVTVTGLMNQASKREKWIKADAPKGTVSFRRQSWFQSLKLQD
UniProt Q6P1L5: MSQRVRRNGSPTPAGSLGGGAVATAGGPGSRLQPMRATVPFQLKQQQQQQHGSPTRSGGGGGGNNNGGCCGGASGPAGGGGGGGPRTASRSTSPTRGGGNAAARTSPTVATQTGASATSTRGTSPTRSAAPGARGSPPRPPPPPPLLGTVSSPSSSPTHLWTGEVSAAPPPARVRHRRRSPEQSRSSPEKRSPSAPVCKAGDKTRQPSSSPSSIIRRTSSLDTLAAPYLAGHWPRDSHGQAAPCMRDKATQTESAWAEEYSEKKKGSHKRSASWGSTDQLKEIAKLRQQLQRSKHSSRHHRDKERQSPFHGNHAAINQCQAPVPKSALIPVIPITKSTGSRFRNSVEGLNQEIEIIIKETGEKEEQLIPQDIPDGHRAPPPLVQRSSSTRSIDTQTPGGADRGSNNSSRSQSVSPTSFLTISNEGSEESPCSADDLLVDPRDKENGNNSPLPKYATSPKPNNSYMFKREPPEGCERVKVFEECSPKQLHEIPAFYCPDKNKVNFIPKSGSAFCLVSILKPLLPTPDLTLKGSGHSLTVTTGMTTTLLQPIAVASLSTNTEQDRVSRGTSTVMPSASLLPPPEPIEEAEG
UniProt Q15910, whole entry, looked up: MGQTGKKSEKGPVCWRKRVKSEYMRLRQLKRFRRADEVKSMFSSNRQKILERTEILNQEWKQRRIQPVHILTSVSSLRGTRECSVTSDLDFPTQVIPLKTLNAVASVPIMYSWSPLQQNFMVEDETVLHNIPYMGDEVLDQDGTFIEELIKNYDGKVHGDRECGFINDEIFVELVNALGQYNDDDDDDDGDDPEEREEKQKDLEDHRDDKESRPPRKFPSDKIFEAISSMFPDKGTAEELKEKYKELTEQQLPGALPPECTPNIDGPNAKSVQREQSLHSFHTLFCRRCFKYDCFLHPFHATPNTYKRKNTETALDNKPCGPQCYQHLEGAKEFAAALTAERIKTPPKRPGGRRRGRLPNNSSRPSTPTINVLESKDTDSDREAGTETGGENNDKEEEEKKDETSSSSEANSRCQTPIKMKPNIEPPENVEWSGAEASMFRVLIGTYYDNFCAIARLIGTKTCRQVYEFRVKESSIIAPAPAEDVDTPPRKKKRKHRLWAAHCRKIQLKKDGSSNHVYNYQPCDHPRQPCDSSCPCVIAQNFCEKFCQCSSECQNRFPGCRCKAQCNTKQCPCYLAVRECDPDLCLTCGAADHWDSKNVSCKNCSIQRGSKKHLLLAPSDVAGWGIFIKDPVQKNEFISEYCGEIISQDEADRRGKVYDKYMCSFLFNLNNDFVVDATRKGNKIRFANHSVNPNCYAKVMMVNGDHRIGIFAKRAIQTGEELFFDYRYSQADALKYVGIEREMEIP
UniProt Q9H6S3: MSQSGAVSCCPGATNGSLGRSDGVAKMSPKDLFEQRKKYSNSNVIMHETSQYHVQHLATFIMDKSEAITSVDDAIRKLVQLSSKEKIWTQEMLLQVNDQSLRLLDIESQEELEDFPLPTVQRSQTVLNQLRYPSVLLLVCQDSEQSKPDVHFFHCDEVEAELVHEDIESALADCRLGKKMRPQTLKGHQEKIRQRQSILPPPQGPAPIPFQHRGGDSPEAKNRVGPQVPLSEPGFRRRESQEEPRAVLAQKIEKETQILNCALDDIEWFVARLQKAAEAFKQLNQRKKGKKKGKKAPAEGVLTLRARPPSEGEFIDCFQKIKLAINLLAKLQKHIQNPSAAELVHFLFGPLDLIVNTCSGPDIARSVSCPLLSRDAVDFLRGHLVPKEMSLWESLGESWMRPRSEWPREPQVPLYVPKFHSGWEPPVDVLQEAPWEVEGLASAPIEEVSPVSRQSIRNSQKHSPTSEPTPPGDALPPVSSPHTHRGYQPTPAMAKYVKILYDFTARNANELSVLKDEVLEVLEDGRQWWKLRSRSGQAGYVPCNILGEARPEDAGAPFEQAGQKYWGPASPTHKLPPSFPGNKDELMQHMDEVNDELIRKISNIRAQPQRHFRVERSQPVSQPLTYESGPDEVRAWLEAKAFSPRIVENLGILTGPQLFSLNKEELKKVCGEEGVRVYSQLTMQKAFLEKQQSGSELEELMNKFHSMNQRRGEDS
UniProt P50548: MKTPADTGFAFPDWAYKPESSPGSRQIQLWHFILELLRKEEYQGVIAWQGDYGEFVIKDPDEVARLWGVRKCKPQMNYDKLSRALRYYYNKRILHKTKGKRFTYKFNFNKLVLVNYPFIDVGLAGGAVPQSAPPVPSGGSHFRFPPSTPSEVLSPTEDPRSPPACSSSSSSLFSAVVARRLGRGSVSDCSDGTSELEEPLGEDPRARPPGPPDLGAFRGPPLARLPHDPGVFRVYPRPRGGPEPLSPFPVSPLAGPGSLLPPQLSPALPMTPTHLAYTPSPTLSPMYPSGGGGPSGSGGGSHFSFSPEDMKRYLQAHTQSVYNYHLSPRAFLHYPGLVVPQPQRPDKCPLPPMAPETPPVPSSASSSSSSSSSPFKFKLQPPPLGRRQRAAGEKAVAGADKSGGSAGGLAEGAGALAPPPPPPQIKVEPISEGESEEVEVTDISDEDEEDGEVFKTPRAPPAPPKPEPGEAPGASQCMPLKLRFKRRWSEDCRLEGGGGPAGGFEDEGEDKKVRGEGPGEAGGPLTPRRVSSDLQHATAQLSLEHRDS
UniProt Q13216, whole entry, looked up: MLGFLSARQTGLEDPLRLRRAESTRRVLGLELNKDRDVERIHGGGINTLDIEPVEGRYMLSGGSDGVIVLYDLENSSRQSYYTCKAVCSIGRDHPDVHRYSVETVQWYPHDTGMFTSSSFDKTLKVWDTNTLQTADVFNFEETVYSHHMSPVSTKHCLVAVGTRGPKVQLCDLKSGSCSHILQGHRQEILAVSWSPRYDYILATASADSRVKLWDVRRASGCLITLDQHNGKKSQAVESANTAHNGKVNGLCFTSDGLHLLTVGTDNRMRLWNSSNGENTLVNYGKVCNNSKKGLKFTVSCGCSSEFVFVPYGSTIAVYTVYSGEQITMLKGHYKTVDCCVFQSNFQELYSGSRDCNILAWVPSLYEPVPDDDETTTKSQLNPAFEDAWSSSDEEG
UniProt Q8IXR5: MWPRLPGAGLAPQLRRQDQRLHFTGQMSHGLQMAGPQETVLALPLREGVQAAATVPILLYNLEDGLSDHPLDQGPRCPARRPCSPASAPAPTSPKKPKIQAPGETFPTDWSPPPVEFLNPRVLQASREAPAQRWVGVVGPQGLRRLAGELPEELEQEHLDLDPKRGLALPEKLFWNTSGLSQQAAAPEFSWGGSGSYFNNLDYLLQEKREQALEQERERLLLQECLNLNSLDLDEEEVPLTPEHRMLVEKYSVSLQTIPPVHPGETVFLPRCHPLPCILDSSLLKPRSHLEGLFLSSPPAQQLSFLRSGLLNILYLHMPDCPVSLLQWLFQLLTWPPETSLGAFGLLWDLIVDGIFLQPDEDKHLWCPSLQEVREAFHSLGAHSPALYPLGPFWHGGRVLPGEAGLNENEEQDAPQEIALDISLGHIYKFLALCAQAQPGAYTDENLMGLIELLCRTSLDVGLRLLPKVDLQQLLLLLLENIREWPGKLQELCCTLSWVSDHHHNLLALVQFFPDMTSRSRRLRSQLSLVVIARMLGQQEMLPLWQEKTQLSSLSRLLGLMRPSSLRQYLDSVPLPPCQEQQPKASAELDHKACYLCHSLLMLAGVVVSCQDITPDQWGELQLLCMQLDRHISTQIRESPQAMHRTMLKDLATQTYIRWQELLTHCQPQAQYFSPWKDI
UniProt Q9P2D6: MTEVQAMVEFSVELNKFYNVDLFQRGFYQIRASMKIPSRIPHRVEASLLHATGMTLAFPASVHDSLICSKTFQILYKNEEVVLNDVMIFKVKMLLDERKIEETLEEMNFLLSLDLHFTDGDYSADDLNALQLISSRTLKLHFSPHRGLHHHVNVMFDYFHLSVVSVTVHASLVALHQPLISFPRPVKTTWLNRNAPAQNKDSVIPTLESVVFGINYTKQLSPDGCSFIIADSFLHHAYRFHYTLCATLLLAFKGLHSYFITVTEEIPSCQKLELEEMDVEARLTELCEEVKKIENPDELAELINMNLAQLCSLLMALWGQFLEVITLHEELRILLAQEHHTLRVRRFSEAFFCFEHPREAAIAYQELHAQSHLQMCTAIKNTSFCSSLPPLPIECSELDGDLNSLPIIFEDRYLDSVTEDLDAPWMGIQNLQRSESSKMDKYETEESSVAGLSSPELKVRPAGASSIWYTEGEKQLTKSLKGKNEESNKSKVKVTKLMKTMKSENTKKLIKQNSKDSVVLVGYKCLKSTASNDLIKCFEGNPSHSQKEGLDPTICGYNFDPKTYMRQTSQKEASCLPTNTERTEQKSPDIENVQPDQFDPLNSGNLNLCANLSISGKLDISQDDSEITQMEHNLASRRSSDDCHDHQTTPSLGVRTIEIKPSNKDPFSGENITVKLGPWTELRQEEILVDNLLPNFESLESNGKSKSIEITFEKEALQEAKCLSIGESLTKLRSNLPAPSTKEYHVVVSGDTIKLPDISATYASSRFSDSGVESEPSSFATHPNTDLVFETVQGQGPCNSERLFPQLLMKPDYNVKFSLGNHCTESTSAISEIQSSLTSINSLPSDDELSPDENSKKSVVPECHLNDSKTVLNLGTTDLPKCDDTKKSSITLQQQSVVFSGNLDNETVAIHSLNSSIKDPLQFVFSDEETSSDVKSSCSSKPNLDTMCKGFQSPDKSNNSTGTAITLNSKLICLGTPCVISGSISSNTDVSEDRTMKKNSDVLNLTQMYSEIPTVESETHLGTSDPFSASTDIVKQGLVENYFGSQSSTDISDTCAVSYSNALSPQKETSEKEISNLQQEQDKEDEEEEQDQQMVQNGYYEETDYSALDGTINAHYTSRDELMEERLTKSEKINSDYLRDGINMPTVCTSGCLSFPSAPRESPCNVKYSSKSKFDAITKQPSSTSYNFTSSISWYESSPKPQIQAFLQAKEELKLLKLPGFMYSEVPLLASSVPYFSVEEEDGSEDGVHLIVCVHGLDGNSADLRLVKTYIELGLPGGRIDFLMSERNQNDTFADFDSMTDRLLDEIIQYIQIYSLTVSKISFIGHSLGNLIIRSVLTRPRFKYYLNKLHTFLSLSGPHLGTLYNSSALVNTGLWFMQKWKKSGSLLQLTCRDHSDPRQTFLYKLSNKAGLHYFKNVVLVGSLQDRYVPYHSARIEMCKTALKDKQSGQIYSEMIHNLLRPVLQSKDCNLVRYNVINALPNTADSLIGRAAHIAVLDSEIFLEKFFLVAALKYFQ

Columns and labels:
Assay in all cases: log2 fold change, soluble protein after heating vs DMSO (PISA); higher = thermal stabilisation; K562 cells, 10 uM, 30 min; active = over 0.2 and 3.5 SD of the protein, either way, in both replicates (recomputed)
erlotinib = compound: C#Cc1cccc(Nc2ncnc3cc(OCCOC)c(OCCOC)cc23)c1 [erlotinib]
In short: (§1)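 For each measurement, 10 μM compound was applied for 30 min to K562 cells at 2×10^6 cells/mL. Aliquots were heated for 3 min across 48°C-58°C, pooled, and extracted in PBS with 0.5% NP-40 at 4°C; the supernatant after 21,000xg for 90 min was soluble protein. This was quantified by TMTpro 16plex LC-MS/MS with channel sums equalised, and thermal stability was reported relative to control samples from duplicates, on a log2 fold-change scale.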

[1] = compound: C1=CC(=C(C=C1Cl)C2=NC3=NC=CN=C3C(=N2)NC4=CC=NC=C4)F
In short: as §1

[2] = compound: C1=CC(=CC=C1C2=NC3=C(N2)C=C(C=C3)C(=O)N)OC4=CC=C(C=C4)Cl
In short: as §1

[3] = compound: C1CCN(C1)C(=O)NC2=CC=CC(=C2)NC3=NC=C(C(=N3)NCCC4=CN=CN4)Br
In short: as §1

[4] = compound: C1CN(CCC1(CC2=CC=C(C=C2)Cl)N)C3=NC=NC4=C3C=CN4
In short: as §1

[5] = compound: CC(C)(O)CC(=O)NCCn1ccc2ncnc(Nc3ccc(Oc4cccc(C(F)(F)F)c4)c(Cl)c3)c21
In short: as §1

[6] = compound: CC(C)C1=C2N=C(C=C(N2N=C1)NCC3=CC=CC=C3)NCCCCCCN
In short: as §1

[7] = compound: CC1=C(C2=C(C=C1)C(=O)C3=CC=CC=C3N2CCCN)C
In short: as §1

[8] = compound: C/C(=N\NC(=O)C1=CC(=CC=C1)S(=O)(=O)N2CCOCC2)/C3=C(C=CC(=C3)Cl)O
In short: as §1

[9] = compound: C1=CC2=C(C=CC(=C2)/C=C\3/C(=O)NC(=NCC4=CC=CS4)S3)N=C1
In short: as §1

[10] = compound: C1=CC2=NC=CN=C2C=C1/C=C/3\C(=O)NC(=O)S3
In short: as §1

[11] = compound: C1=CC=C(C=C1)C2=NC(=C(N2)C3=CC=NC=C3)C4=CC(=C(C=C4)Cl)O
In short: as §1

[12] = compound: C1=CC=C2C(=C1)C3=NNC4=CC=CC(=C43)C2=O
In short: as §1

IRAK-1-4 Inhibitor I = compound: C1COCCN1CCN2C3=CC=CC=C3N=C2NC(=O)C4=CC(=CC=C4)[N+](=O)[O-] [IRAK-1-4 Inhibitor I]
In short: as §1

ibrutinib = compound: C=CC(=O)N1CCC[C@@H](n2nc(-c3ccc(Oc4ccccc4)cc3)c3c(N)ncnc32)C1 [ibrutinib]
In short: as §1

[13] = compound: CC(=O)c1cnc2ccc(-c3cc(Cl)c(O)c(Cl)c3)nc2c1N[C@H]1CC[C@H](CN(C)C)CC1
In short: as §1

ralimetinib = compound: CC(C)(C)Cn1c(N)nc2ccc(-c3[nH]c(C(C)(C)C)nc3-c3ccc(F)cc3)nc21 [ralimetinib]
In short: as §1

[14] = compound: CC(C)C[C@@H](C=O)NC(=O)[C@H](CC(C)C)NC(=O)[C@H](CC(C)C)NC(=O)OCc1ccccc1
In short: as §1

pinometostat = compound: CC(C)N(C[C@H]1O[C@@H](n2cnc3c(N)ncnc32)[C@H](O)[C@@H]1O)[C@H]1C[C@@H](CCc2nc3cc(C(C)(C)C)ccc3[nH]2)C1 [pinometostat]
In short: as §1

[15] = compound: CC1=C(C(CC(=O)N1)C2=CC=C(C=C2)C(F)(F)F)C(=O)NC3=C(C=C4C(=C3)C=NN4)F
In short: as §1

Measured: log2 fold change

FAM204A (UniProt Q9H8W3)
inactive: erlotinib -0.025 | [1] -0.467 | [2] 0.06 | [3] -0.145 | [4] -0.059 | [5] 0.072 | [6] 0.116 | [7] 0.075

EPB41L5 (UniProt Q9HCM4)
inactive: erlotinib 0.015 | [1] -0.206 | [2] -0.018 | [5] -0.003 | [6] -0.214

EPHA6 (UniProt Q9UF33)
inactive: [8] -0.58 | [1] -0.287 | [9] 0.579 | [10] -0.249 | [11] -0.5 | [12] -0.396 | [3] 0.054 | [4] -0.062 | IRAK-1-4 Inhibitor I 0.102 | ibrutinib 0.287 | [13] -0.183 | ralimetinib -0.381 | [5] 0.3 | [14] 0.565 | pinometostat 0.035 | [15] 0.119 | [7] -0.023

ERO1B (UniProt Q86YB8)
inactive: erlotinib 0.051 | [8] -0.008 | [1] -0.233 | [2] -0.052 | [9] 0.056 | [10] 0.071 | [12] 0 | IRAK-1-4 Inhibitor I -0.091 | ibrutinib -0.053 | [13] -0.029 | [5] -0.035 | [6] -0.011 | pinometostat 0.097 | [15] 0.065

EWSR1 (UniProt H7BY36)
inactive: erlotinib 0.118 | [8] -0.025 | [1] 0.049 | [2] -0.001 | [9] -0.043 | [10] -0.047 | [12] -0.08 | ibrutinib 0.345 | [13] -0.021 | [5] 0.031 | [6] -0.07 | [15] 0.586

EVI5 isoform 2 (UniProt O60447)
inactive: erlotinib -0.002 | [8] 0.654 | [2] 0.013 | [9] -0.273 | [11] 0.24 | [12] -0.216 | [3] -0.566 | [4] -0.128 | [13] -0.051 | ralimetinib 0.305 | [6] -0.481 | [14] 0.204 | [7] -0.534

FAM185A (UniProt Q8N0U4)
inactive: erlotinib -0.1 | [8] 0.081 | [2] -0.161 | [9] -0.083 | [10] 0.105 | [11] -0.097 | [12] 0.075 | [3] -0.012 | [4] 0.098 | IRAK-1-4 Inhibitor I 0.046 | ibrutinib 0.1 | [13] -0.013 | ralimetinib -0.047 | [6] 0.194 | [14] -0.145 | pinometostat -0.025 | [15] 0.169 | [7] -0.121

FAM117B (UniProt Q6P1L5)
inactive: erlotinib 0.088 | [8] 0.053 | [1] -0.134 | [2] 0.079 | [9] 0.098 | [11] 0.151 | [12] 0.099 | [3] 0.165 | [4] 0.09 | IRAK-1-4 Inhibitor I 0.238 | [13] -0.593 | ralimetinib -0.177 | [5] -0.255 | [6] 0.144 | [14] 0.016 | pinometostat -0.175 | [7] 0.037

EZH2 isoform 2 (UniProt Q15910)
inactive: erlotinib -0.036 | [8] 0.129 | [1] 0.163 | [2] 0.084 | [9] 0.046 | [10] 0.048 | [12] 0.054 | [3] -0.106 | [4] -0.062 | IRAK-1-4 Inhibitor I -0.247 | ibrutinib -0.114 | [13] 0.115 | [5] -0.041 | [6] -0.239 | pinometostat 0.068 | [7] -0.11

EPS8L2 isoform 3 (UniProt Q9H6S3)
inactive: erlotinib 0.015 | [1] 0.048 | [2] 0.131 | [11] -0.098 | [3] -0.019 | [4] -0.005 | ralimetinib -0.008 | [5] 0.006 | [6] -0.052 | [14] -0.006 | [7] 0.025

ESYT2 (UniProt H7BXI1)
inactive: erlotinib 0.097 | [8] 0.091 | [1] -0.135 | [2] -0.106 | [9] -0.04 | [10] 0.032 | [12] 0.041 | ibrutinib 0.01 | [13] -0.031 | [5] -0.052 | [6] -0.226 | [15] -0.036

ERF (UniProt P50548)
inactive: erlotinib -0.448 | [1] 0.127 | [2] -0.036 | [3] 0.058 | [4] 0.13 | [5] 0.093 | [6] 0.186 | [7] 0.094

ERCC8 (UniProt Q13216)
inactive: erlotinib 0.009 | [8] -0.018 | [2] -0.14 | [9] -0.012 | [10] -0.031 | [11] -0.02 | [12] -0.013 | [3] 0.017 | [4] -0.098 | IRAK-1-4 Inhibitor I 0.034 | ibrutinib 0.047 | [13] -0.084 | ralimetinib -0.02 | [6] 0.067 | [14] 0.007 | pinometostat -0.017 | [15] 0.038 | [7] 0.029

FAM178B (UniProt Q8IXR5)
inactive: erlotinib -0.15 | [2] 0.157 | [6] -0.027

ESRRB isoform 1 (UniProt O95718)
inactive: erlotinib -0.133 | [2] -0.037 | [10] -0.046 | IRAK-1-4 Inhibitor I -0.009 | ibrutinib 0.031 | [6] 0.181 | pinometostat -0.132

ERAL1 (UniProt O75616)
inactive: erlotinib 0.133 | [8] 0.183 | [1] -0.003 | [2] -0.226 | [9] 0.143 | [10] 0.029 | [12] -0.089 | IRAK-1-4 Inhibitor I -0.059 | ibrutinib -0.041 | [13] -0.245 | [5] 0.004 | [6] -0.138 | pinometostat -0.02 | [15] -0.135

Copied from the results shown (6 entries):
EPS8L2 isoform 3 (UniProt Q9H6S3)
inactive: erlotinib 0.015 | [1] 0.048 | [2] 0.131 | [11] -0.098 | [3] -0.019 | [4] -0.005 | ralimetinib -0.008 | [5] 0.006 | [6] -0.052 | [14] -0.006 | [7] 0.025

ESYT2 (UniProt H7BXI1)
inactive: erlotinib 0.097 | [8] 0.091 | [1] -0.135 | [2] -0.106 | [9] -0.04 | [10] 0.032 | [12] 0.041 | ibrutinib 0.01 | [13] -0.031 | [5] -0.052 | [6] -0.226 | [15] -0.036

ERF (UniProt P50548)
inactive: erlotinib -0.448 | [1] 0.127 | [2] -0.036 | [3] 0.058 | [4] 0.13 | [5] 0.093 | [6] 0.186 | [7] 0.094

ERCC8 (UniProt Q13216)
inactive: erlotinib 0.009 | [8] -0.018 | [2] -0.14 | [9] -0.012 | [10] -0.031 | [11] -0.02 | [12] -0.013 | [3] 0.017 | [4] -0.098 | IRAK-1-4 Inhibitor I 0.034 | ibrutinib 0.047 | [13] -0.084 | ralimetinib -0.02 | [6] 0.067 | [14] 0.007 | pinometostat -0.017 | [15] 0.038 | [7] 0.029

FAM178B (UniProt Q8IXR5)
inactive: erlotinib -0.15 | [2] 0.157 | [6] -0.027

ESRRB isoform 1 (UniProt O95718)
inactive: erlotinib -0.133 | [2] -0.037 | [10] -0.046 | IRAK-1-4 Inhibitor I -0.009 | ibrutinib 0.031 | [6] 0.181 | pinometostat -0.132

More records follow:

ERN1 (UniProt O75460)
inactive: erlotinib 0.046 | [1] -0.112 | [2] -0.035 | [11] 0 | [3] 0.022 | [4] 0.09 | IRAK-1-4 Inhibitor I -0.122 | ralimetinib -0.123 | [5] -0.163 | [6] -0.203 | [14] 0.249 | pinometostat 0.06 | [15] -0.001 | [7] 0.084

ERI3 (UniProt H0Y4B0)
inactive: erlotinib -0.042 | [1] -0.442 | [2] -0.069 | [10] -0.123 | ibrutinib 0.088 | [5] 0.26 | [6] 0.234

F10 (UniProt P00742)
inactive: erlotinib -0.199 | [1] 0.07 | [2] 0.081 | [10] -0.095 | [11] -0.089 | [3] 0.105 | [4] 0.206 | IRAK-1-4 Inhibitor I 0.037 | ibrutinib 0.082 | ralimetinib -0.064 | [5] 0.079 | [6] 0.095 | [14] 0.036 | pinometostat -0.121 | [15] 0 | [7] -0.118

FAM135A (UniProt Q9P2D6)
inactive: erlotinib 0.033 | [1] 0.07 | [2] -0.116 | [5] 0.009 | [6] 0.051

FAM171A2 (UniProt A8MVW0)
inactive: erlotinib -0.051 | [2] 0.125 | [11] 0.174 | ralimetinib 0.193 | [6] 0.034 | [14] -0.158

FAM120B (UniProt Q96EK7)
inactive: erlotinib -0.149 | [8] -0.169 | [2] -0.05 | [9] -0.033 | [12] 0.216 | [13] 0.043 | [6] 0.055
